Some of the results follow.

Amino acid sequences for entries named in this document (tags omitted). A change or cut given only in a name is not applied to a line headed by its entry.
UniProt P55209: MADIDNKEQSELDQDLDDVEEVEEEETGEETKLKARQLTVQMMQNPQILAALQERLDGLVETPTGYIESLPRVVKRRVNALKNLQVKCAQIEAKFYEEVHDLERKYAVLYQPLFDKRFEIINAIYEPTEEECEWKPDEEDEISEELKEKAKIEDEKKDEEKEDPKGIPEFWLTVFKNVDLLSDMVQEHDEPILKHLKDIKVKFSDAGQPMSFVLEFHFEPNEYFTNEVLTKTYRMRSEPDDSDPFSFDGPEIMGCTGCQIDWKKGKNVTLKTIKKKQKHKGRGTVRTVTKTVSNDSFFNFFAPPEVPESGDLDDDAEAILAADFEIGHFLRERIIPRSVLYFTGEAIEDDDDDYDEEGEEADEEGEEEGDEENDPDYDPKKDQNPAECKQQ
UniProt Q15003, whole entry, looked up: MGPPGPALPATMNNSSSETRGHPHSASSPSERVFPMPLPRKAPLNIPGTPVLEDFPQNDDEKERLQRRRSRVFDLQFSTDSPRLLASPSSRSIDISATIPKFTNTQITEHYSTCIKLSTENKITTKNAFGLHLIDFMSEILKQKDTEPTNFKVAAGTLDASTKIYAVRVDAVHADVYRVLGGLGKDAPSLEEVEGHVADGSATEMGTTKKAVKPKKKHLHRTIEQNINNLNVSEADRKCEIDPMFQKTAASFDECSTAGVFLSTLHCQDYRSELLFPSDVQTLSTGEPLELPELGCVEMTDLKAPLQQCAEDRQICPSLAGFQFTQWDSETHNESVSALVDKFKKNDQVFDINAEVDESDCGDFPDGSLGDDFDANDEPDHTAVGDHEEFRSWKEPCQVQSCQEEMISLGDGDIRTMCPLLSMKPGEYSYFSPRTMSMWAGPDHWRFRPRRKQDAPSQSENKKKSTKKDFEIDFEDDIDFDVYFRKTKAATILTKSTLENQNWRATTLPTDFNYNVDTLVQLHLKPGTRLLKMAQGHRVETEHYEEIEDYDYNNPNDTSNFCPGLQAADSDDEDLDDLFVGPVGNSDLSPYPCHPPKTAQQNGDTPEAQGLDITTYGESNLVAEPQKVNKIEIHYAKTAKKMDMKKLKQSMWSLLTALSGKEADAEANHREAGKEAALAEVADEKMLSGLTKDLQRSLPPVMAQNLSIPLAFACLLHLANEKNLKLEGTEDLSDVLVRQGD
UniProt Q09161: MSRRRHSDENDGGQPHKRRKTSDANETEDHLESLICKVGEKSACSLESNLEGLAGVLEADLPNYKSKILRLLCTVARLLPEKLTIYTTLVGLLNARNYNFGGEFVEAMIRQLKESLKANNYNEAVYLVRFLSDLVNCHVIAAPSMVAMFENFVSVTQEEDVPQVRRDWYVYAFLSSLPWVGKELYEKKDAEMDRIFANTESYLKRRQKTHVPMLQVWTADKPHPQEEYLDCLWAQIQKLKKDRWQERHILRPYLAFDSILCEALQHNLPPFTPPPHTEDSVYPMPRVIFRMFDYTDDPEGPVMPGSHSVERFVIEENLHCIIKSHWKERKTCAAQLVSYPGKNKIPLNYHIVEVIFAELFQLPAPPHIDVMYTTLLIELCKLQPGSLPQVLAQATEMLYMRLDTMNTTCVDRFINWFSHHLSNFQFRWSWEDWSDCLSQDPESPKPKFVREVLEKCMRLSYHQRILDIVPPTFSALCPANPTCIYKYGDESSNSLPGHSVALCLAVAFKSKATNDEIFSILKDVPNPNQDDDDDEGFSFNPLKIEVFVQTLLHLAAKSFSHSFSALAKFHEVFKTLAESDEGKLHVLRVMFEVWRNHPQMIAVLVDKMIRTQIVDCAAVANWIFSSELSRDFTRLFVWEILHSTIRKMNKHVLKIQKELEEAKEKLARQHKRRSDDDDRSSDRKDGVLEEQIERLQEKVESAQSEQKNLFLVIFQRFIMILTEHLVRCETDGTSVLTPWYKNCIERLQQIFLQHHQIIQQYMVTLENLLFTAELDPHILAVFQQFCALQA
UniProt Q6XQN6: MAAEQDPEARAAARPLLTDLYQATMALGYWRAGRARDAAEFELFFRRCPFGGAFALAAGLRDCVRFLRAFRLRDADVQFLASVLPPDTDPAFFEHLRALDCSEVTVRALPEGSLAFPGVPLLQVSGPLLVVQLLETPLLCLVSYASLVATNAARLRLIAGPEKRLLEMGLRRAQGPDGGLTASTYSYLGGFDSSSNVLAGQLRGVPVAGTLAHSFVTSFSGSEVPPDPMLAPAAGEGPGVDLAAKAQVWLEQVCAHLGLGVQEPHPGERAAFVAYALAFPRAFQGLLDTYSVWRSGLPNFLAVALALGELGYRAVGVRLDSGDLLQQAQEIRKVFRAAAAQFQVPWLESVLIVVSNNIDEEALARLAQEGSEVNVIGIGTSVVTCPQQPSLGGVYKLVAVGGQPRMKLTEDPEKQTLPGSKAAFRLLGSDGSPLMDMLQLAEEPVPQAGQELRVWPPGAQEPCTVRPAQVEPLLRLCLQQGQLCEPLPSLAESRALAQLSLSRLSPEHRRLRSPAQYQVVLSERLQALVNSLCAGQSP
UniProt Q92614: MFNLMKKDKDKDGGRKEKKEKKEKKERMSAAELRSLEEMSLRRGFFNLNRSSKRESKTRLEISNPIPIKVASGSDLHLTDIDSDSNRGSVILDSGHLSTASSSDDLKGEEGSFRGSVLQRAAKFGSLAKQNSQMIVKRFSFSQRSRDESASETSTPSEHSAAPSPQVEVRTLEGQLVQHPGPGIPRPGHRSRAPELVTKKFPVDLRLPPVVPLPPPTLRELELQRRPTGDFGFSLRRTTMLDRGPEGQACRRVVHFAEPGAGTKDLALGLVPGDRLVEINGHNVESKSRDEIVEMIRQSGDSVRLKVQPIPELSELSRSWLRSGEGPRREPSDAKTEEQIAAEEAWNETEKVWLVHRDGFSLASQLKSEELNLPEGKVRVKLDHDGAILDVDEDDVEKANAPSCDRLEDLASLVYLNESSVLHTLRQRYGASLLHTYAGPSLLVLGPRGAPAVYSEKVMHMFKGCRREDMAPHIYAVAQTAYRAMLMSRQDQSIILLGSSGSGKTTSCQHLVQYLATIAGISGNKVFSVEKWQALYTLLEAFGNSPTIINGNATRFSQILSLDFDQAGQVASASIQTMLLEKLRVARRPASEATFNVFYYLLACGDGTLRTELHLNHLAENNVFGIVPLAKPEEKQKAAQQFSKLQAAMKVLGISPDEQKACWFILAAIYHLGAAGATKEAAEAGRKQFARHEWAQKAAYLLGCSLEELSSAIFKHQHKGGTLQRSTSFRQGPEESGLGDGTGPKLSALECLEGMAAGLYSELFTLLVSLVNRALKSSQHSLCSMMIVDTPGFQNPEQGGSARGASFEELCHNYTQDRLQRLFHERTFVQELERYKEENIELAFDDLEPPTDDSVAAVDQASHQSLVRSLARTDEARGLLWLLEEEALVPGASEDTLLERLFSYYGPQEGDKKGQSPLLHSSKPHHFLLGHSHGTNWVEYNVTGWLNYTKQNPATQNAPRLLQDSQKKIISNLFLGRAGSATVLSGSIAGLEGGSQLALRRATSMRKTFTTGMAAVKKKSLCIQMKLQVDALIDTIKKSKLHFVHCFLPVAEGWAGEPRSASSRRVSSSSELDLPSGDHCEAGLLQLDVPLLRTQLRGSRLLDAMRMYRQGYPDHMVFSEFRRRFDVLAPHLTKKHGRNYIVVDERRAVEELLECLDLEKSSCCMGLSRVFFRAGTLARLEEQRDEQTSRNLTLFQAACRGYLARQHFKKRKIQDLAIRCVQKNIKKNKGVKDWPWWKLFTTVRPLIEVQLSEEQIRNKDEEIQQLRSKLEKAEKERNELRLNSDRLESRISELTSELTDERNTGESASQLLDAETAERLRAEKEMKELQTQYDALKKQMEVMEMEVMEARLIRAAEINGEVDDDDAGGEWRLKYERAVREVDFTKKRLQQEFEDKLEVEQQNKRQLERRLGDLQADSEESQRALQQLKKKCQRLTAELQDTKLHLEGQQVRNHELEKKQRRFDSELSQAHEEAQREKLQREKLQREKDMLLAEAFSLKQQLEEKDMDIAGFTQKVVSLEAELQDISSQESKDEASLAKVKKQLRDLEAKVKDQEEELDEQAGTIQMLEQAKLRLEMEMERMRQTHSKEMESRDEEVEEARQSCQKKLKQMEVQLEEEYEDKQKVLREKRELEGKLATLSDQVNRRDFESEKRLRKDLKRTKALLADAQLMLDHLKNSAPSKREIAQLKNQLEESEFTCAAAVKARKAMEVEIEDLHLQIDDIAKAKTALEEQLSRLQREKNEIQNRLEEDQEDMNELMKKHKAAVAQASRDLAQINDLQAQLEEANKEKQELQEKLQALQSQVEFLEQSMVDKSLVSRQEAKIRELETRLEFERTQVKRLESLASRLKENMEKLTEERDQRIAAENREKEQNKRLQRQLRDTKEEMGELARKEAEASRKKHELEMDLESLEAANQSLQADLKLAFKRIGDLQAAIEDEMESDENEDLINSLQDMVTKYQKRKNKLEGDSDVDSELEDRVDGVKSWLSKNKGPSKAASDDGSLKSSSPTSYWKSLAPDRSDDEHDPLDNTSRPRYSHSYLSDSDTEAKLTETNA
UniProt Q6N069: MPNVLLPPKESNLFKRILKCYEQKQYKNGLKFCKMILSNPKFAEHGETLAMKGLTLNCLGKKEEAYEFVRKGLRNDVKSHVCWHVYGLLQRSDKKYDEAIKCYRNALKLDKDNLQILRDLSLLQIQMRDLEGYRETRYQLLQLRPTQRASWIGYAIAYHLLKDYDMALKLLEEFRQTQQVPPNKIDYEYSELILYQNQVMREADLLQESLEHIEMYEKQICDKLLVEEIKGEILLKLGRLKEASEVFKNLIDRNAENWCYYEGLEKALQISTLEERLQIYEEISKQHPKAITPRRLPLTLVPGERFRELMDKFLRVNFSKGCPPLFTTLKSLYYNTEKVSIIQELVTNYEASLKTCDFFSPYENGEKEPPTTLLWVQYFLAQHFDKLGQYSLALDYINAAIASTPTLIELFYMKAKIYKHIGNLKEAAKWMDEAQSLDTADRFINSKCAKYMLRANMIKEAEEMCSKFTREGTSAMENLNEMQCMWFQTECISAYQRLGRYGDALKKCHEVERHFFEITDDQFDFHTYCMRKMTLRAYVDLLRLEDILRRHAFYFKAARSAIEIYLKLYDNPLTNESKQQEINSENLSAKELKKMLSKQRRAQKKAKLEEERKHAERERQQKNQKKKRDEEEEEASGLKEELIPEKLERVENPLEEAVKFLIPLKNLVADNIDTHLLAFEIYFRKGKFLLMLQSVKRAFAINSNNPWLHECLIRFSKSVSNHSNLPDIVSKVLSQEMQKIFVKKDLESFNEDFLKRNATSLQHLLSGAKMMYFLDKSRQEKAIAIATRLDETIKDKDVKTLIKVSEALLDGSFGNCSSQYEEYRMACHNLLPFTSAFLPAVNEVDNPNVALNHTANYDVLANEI
UniProt B0I1T2: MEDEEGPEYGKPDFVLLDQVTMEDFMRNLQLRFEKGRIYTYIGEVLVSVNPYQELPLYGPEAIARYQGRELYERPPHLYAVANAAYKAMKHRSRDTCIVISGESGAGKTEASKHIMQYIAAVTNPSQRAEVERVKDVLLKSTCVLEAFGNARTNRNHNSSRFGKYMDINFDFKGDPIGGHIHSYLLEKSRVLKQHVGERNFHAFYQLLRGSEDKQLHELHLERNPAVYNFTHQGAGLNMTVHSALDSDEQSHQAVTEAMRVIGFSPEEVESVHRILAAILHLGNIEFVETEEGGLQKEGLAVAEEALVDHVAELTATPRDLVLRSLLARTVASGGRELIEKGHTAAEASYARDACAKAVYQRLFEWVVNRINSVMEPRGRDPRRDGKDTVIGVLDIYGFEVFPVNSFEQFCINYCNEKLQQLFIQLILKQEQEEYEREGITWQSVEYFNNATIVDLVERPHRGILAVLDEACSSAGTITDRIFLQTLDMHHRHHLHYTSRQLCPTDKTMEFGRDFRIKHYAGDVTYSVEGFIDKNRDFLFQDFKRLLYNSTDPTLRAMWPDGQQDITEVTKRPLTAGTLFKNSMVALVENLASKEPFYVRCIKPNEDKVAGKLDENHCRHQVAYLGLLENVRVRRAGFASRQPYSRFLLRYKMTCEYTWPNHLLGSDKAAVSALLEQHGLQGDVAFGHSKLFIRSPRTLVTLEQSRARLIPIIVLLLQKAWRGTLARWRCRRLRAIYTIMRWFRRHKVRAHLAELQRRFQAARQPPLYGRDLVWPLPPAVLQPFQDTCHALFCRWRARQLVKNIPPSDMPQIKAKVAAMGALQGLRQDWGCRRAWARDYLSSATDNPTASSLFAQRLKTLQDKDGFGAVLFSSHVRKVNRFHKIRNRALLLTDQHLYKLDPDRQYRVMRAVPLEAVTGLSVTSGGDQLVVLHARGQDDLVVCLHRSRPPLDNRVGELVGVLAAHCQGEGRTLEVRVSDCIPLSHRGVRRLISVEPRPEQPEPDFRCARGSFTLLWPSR

Compound in the assay: CC1Cc2ccccc2N1C(=O)C1CCCN(C1)C(=O)CCl (mixture of isomers) [TRIM25 ligand 11 (diastereomer mixture)]
Kind of assay: probe-labelled cysteine peptide fold change vs DMSO (competition) (log2 fold change); higher = less target engagement (more negative = stronger competition). Conditions: THP-1, incubation time: 4 h.
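Further: competitive chemoproteomic profiling in live THP-1 cells with an iodoacetamide desthiobiotin (IA-DTB) probe, comparing probe-labelled peptide intensities in compound-treated cells against DMSO-treated controls.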

Turning to “NAP1L1_P55209_388_DQNPAECK (UniProt P55209)”, the “probe-labelled cysteine peptide fold change” value runs as follows: (10 µM) 0.0469; (50 µM) 0.435.
As for “MYO19_Q96H55_826_MACLAAK (UniProt Q96H55)”, the “probe-labelled cysteine peptide fold change” value by setting is: (10 µM) -0.113; (50 µM) 0.0354.
As for “NCAPH_Q15003_267_TAASFDECSTAGVFLSTLHCQDYR (UniProt Q15003)”, the “probe-labelled cysteine peptide fold change” value by setting is: (10 µM) -0.0113; (50 µM) -0.337.
Regarding “NCBP1_Q09161_36_TSDANETEDHLESLICK (UniProt Q09161)”, the “probe-labelled cysteine peptide fold change” value was -0.0632 (10 µM) and 0.0727 (50 µM).
With “NAPRT_Q6XQN6_484_LCLQQGQLCEPLPSLAESR (UniProt Q6XQN6)”, the “probe-labelled cysteine peptide fold change” value reads like this: (10 µM) 0.0215; (50 µM) 0.0105.
With “MYO18A_Q92614_1155_AVEELLECLDLEK (UniProt Q92614)”, the “probe-labelled cysteine peptide fold change” value (10 µM) came out at 0.0375 and the “probe-labelled cysteine peptide fold change” value (50 µM) was 0.248.
For the target “MYO9B_Q13459_1857_CPDNSDPLTSMK (UniProt Q13459)”, the “probe-labelled cysteine peptide fold change” value stood at 0.0154 (10 µM) and 0.146 (50 µM).
For “NAA16_Q6N069_221_QICDKLLVEEIK (UniProt Q6N069)” the same measures were -0.37 and -0.025.
With “NAPA_P54920_84_HDAATCFVDAGNAFKK (UniProt P54920)”, the “probe-labelled cysteine peptide fold change” value (10 µM) was -0.123 and the “probe-labelled cysteine peptide fold change” value (50 µM) is -0.017.
The like results for “NCAPD3_P42695_588_HCDVSGMKEDLWILQDQCRDPAVSVR (UniProt P42695)” were, in that order, -0.0841 and -0.0747.
The like results for “MYO1G_B0I1T2_618_LDENHCR (UniProt B0I1T2)” were, in that order, 0.054 and 0.247.
“MYO18A_Q92614_783_SSQHSLCSMMIVDTPGFQNPEQGGSAR (UniProt Q92614)”: the “probe-labelled cysteine peptide fold change” value (10 µM) was determined as 0.0781 and the “probe-labelled cysteine peptide fold change” value (50 µM) was -0.287.
As to “NCAPH_Q15003_255_TAASFDECSTAGVFLSTLHCQDYR (UniProt Q15003)”, the “probe-labelled cysteine peptide fold change” value runs as follows: (10 µM) -0.0963; (50 µM) -0.138.
“MZF1_P28698_323_SEQDPTDEDPCR (UniProt P28698)”: the “probe-labelled cysteine peptide fold change” value reads like this: (10 µM) 0.15; (50 µM) 0.0048.

Values taken from the supplement of paper PMC12067093, “Discovery and optimisation of a covalent ligand for TRIM25 and its application to targeted protein ubiquitination” (Chemical Science, 2025).
